Test [1] deals with Enterococcus faecium. Briefly: Antimicrobial activity against vancomycin-susceptible Enterococcus faecium FB769334.
Test [2] deals with Enterococcus faecium. Briefly: Antimicrobial activity against vancomycin-susceptible Enterococcus faecium FB767191.
The test system of a further test is Staphylococcus aureus. Briefly: Antimicrobial activity against vancomycin-intermediate Staphylococcus aureus FB988644. In kind it is functional.
For test [3], the system named is Enterococcus faecalis. Put plainly: Antimicrobial activity against vancomycin-susceptible Enterococcus faecalis FB766323. In kind it is functional.
Test [4] deals with Enterococcus faecalis. Briefly: Antimicrobial activity against vancomycin-susceptible Enterococcus faecalis FB766782. In kind it is functional.

We go through one compound from ChEMBL document CHEMBL1146196, “Bactericidal activity and resistance development profiling of dalbavancin” (2007).

Converted amounts (≈) assume the structure as drawn.

As for `CN[C@H](CC(C)C)C(=O)N[C@H]1C(=O)N[C@@H](CC(N)=O)C(=O)N[C@H]2C(=O)N[C@H]3C(=O)N[C@H](C(=O)N[C@H](C(=O)O)c4cc(O)cc(O)c4-c4cc3ccc4O)[C@H](O)c3ccc(c(Cl)c3)Oc3cc2cc(c3O[C@@H]2O[C@H](CO)[C@@H](O)[C@H](O)[C@H]2O[C@H]2C[C@](C)(N)[C@H](O)[C@H](C)O2)Oc2ccc(cc2Cl)[C@H]1O` [VANCOMYCIN], the MIC (as a rule, the least concentration at which growth counts as inhibited) stood at 0.5 µg/mL (≈ 0.345 µM) with Enterococcus faecium [1]; 2 µg/mL (≈ 1.38 µM) in the test with Enterococcus faecium [2]; 8 µg/mL (≈ 5.52 µM) against Staphylococcus aureus; 1 µg/mL (≈ 0.69 µM) in the test with Enterococcus faecalis [3]; 1 µg/mL (≈ 0.69 µM) in the test on Enterococcus faecalis [4].
